Assay results published in patent publication US20240065988A1, “COMBINED USE OF KETAMINE AND RETIGABINE (EZOGABINE) FOR THE TREATMENT OF PSYCHIATRIC DISORDERS” (Yeda Research and Development Co. Ltd., priority 2021, published 2024).
At least one compound was matched to its structure with a doubt left.

Legend:
[1] = system: Kcnq2 mRNA in primary hippocampal neurons; assay: Kcnq2 mRNA in primary hippocampal neurons stimulated with HNKet alone or plus nifedipine, W-7 or cyclosporine-A; type: cell-based, mouse; details: combined with HNKet 10 μM; nifedipine 10 μM, W-7 10 μM, cyclosporine-A 1 μM; 1, 2, 6 hours
Experimental: Primary hippocampal neurons were generated from E16.5 embryos using a standard primary neuron cell culture protocol previously described [K. G. Schraut et al., Eur JNeurosci (2021) 53: 390-401]. Briefly, dissected hippocampi were harvested in ice-cold dissection medium (HBSS, 7 mM HEPES, 2 mM L-glutamine, 500 U/ml penicillin-streptomycin, all Thermo Fisher Scientific). The tissue was incubated for 10 minutes in 0.25% Trypsin-EDTA with 8 mM HEPES (Thermo Fisher Scientific) in a water bath at 37° C. Tissue was washed three times with serum medium (DMEM, 10% FBS, Thermo Fisher Scientific). The cells were dissociated by titration using glass Pasteur pipets 10 in serum medium and filtered with a 70 tm cell strainer (Corning). Cell culture plates were coated overnight with 0.05 mg/ml poly-D-lysine mol wt 70,000-150,000 (Sigma Aldrich) in 0.15 M borate buffer (pH=8.5). Cells were seeded in 24-well plates at a density of 5×10^4 cells in 1 ml growth medium (Neurobasal A medium, 1 x B27 supplement, 0.25×GlutaMAX, all Thermo Fisher Scientific) per well. All cultures were kept in a humidified incubator at 37° C. and 5% CO2. Growth medium was renewed after 7 days of culture. For all experiments, mature twenty-one-day old primary neuronal cultures were used.
Primary hippocampal neurons were generated from E16.5 embryos and cultured for 21 days, as described above (see Primary Cell Culture). […]

mice (C57BL/6N) = assay: Forced swim test (FST), pharmacological manipulation of KCNQ; type: in vivo, mouse; details: retigabine 1 and 5 mg/kg BW in combination with saline (FIG. 23B)
Experimental: C57BL/6N and CD-1 (ICR) male mice aged 10 weeks old were used in these experiments. Ketamine hydrochloride (Ketaset, Zoetis, Germany) was diluted in 0.9% NaCl solution (saline) and administered i.p at 1, 5 or 10 mg/kg BW, depending on the experiment design. The KNCQ inhibitor, XE991 (Alomone labs; Cat #: X-100) was diluted in 5% DMSO and administered i.p at 1 or 3 mg/kg BW. The KCNQ activator, Retigabine (Alomone labs; Cat #: R-100), was diluted in 5% DMSO and administered i.p at 1 or 5 mg/kg BW. As control, mice were injected with a DMSO-saline solution (5% DMSO). For all experiments, mice were tested 30 minutes after injection in the FST or over a period of 36 hours after injection in the social boxes.
Previous studies in rodents have shown that KCNQ function can be regulated with highly-specific agonists and antagonists [V. Barrese et al., Annu Rev Pharmacol Toxicol (2018) 58: 625-648]. […]
Next, it was examined whether retigabine could increase the sustained antidepressant-like effects produced by a single injection of ketamine in mice. Accordingly, a new cohort of mice were treated with a single dose of saline, ketamine, or ketamine in combination with retigabine (1 mg/kg) and antidepressant-like behaviors were assessed using the FST, 5—and 7-days post-injection (FIG. 8A). […]

[2] = system: human patients diagnosed with major depressive disorder (MDD); details: open label trial, chronic treatment (10 weeks); cited from earlier work
mice = details: 8-day i.p. injections; cited from earlier work

Row | Structure (SMILES) | effect of inhibitor on the HNKet-induced upregulation of Kcnq2 mRNA [1] | immobility time during the FST (mice (C57BL/6N)) | depressive symptoms [2] | neuronal hyperactivity and depressive-like behaviors (mice)
1 | COC(=O)C1=C(C)NC(C)=C(C(=O)OC)C1c1ccccc1[N+](=O)[O-] [nifedipine] | eliminated the upregulation of Kcnq2 | – | – | –
2 | CCOC(=O)Nc1ccc(NCc2ccc(F)cc2)cc1N [retigabine] | – | No effects | improvement in depressive symptoms | normalize neuronal hyperactivity and depressive-like behaviors
